Assay results reported in article PMC3118324.
No constants are given. Whether binding was seen depends on the method and setting. Binding seen in cells or lysates may run through a third protein. Some results given as binding are weak or reduced against the parent protein; the word gives no strength.

Molecular target: truncated rotavirus structural protein VP2 (ΔVP2), bovine rotavirus strain RF (bovine rotavirus strain RF) (UniProt P12472)
Experiment: co-sedimentation; intracellular extracts of yeast PD.U-267 co-expressing ΔVP2, VP6 and VP7; 35% sucrose cushion (112,700 x g, 2 h, 4 C), pellet in TNC buffer (50 mM Tris-HCl pH 8.0, 0.15 M NaCl, 10 mM CaCl2), CsCl isopycnic gradient (0.42 g/mL, 148,930 x g, 18 h, 4°C); bands analysed by immunoblotting, SDS-PAGE, Western blot and negative-stain TEM

Which binding does the source give for “truncated rotavirus structural protein VP2 (ΔVP2), bovine rotavirus strain RF (from UniProt P12472 93-880) (domain or fragment)” here?
The binding was “binds”.
